PubChem BioAssay AID1053208, Peter MacCallum Cancer Centre – 2014

- Assay: 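Genes whose silencing cuts survival of bone tumour cells only with doxorubicin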 (primary screen)
- System: mouse osteosarcoma cells, early-passage culture from an engineered mouse model of fibroblastic bone tumour
- Reagents: siRNA pool against mouse genes, 40 nM
- Duration: about 120 h (48 h before drug, then 72 h with drug)
- Challenge: doxorubicin 100 nM for 72 h, roughly 30-40% inhibitory dose
- Read-out: 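Viability read as ATP luminescence after 72 h of 100 nM doxorubicin or none, duplicate wells averaged, scaled to non-targeting siRNA, then expressed as robust z-scores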
- Reading the numbers: viability z-score with doxorubicin: higher = more viable cells under doxorubicin; viability z-score without drug: higher = more viable cells with knock-down alone
- Rule for the call: 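a pool counts as active when its viability z-score with doxorubicin is -2 or below and its z-score without drug lies between -2 and 2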
This is an unselected part of about 17,000 reagents. Over the whole deposit, 788 (4.7%) are marked active. 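Calls rest on z-score classes alone; an extra cut-off of viability at most 70% of control was not applied to them.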 Unmarked entries are inactive. Further read-outs or replicates are left out here.

| target | combined z-score class | viability z-score with doxorubicin | viability z-score without drug |
| --- | --- | --- | --- |
| Gcat (GeneID 26912) | no change with or without drug | -0.11 | 0.84 |
| Rabep2 (GeneID 70314) | no change with or without drug | -0.45 | 1.18 |
| Dact2 (GeneID 240025) | no change with or without drug | 0.34 | 1.18 |
| Olfr908 (GeneID 258872) | no change with or without drug | 0 | 0.17 |
| Nedd9 (GeneID 18003) | low cell count with doxorubicin only (active) | -2.02 | -0.51 |
| Upk1b (GeneID 22268) | no change with or without drug | -0.9 | -0.84 |
| Nmt2 (GeneID 18108) | high cell count with doxorubicin only | 2.02 | 0.34 |
| Spata7 (GeneID 104871) | no change with or without drug | -0.9 | -0.84 |
| Klri2 (GeneID 320407) | no change with or without drug | 0.56 | 1.18 |
| Sprr2k (GeneID 20765) | no change with or without drug | 1.35 | -0.34 |
| Macroh2a3 (GeneID 67552) | no change with or without drug | 1.57 | 0.17 |
| Or4d10b (GeneID 258676) | no change with or without drug | -0.45 | 0 |
| Agpat4 (GeneID 68262) | no change with or without drug | -0.45 | -1.18 |
| Cherp (GeneID 27967) | no change with or without drug | -1.12 | -1.18 |
| Or52e3 (GeneID 258246) | low cell count with doxorubicin only (active) | -2.02 | -0.84 |
| Apcdd1 (GeneID 494504) | no change with or without drug | 0.67 | 1.01 |
| Cnot6l (GeneID 231464) | no change with or without drug | -1.12 | -1.01 |
| Renbp (GeneID 19703) | no change with or without drug | 0.34 | -0.34 |
| Sstr3 (GeneID 20607) | no change with or without drug | -0.22 | -0.67 |
| Acss3 (GeneID 380660) | no change with or without drug | -1.12 | -0.84 |
| Mpdu1 (GeneID 24070) | low cell count with and without drug | -2.36 | -2.36 |
| Il17f (GeneID 257630) | no change with or without drug | 0.22 | 1.18 |
| Or10al4 (GeneID 258624) | no change with or without drug | -0.11 | -1.18 |
| Trappc9 (GeneID 76510) | low cell count with doxorubicin only (active) | -2.14 | 1.52 |
| Vmn1r63 (GeneID 81017) | high cell count without drug only | 1.8 | 3.37 |
| Ina (GeneID 226180) | no change with or without drug | 0.67 | -0.17 |
| Enpep (GeneID 13809) | no change with or without drug | 0.22 | 0.84 |
| Prmt6 (GeneID 99890) | no change with or without drug | -1.12 | 0.67 |
| Or1e16 (GeneID 258923) | no change with or without drug | 0.22 | -0.17 |
| Efna3 (GeneID 13638) | no change with or without drug | 0.45 | -0.17 |
| Mast1 (GeneID 56527) | no change with or without drug | 0.34 | 0.51 |
| Foxred1 (GeneID 235169) | no change with or without drug | 0.34 | -0.51 |
| Creb3l2 (GeneID 208647) | no change with or without drug | 0.67 | 1.18 |
| Rnf128 (GeneID 66889) | low cell count with doxorubicin only (active) | -2.59 | -0.34 |
| Bad (GeneID 12015) | high cell count with doxorubicin only | 2.02 | 1.85 |
| 1700129L13RIK | no change with or without drug | -0.9 | 1.69 |
| Wnt9b (GeneID 22412) | no change with or without drug | 0.34 | -0.17 |
| Cdk18 (GeneID 18557) | no change with or without drug | -1.46 | -1.85 |
| Pkp1 (GeneID 18772) | no change with or without drug | 0 | -0.51 |
| Krtap6-5 (GeneID 68484) | no change with or without drug | -1.8 | -1.18 |
| Vmn1r38 (GeneID 171186) | high cell count with doxorubicin only | 3.82 | 1.52 |
| Traip (GeneID 22036) | no change with or without drug | -0.9 | -1.52 |
| 4933421I07Rik (GeneID 71162) | no change with or without drug | -0.22 | 0.51 |
| Mfrp (GeneID 259172) | no change with or without drug | 1.57 | 0.84 |
| Cdc73 (GeneID 214498) | no change with or without drug | -1.35 | -0.84 |
| Eif2b4 (GeneID 13667) | no change with or without drug | -0.79 | -0.84 |
| Il6ra (GeneID 16194) | no change with or without drug | -0.9 | 1.52 |
| Clxn (GeneID 66793) | no change with or without drug | 0.22 | 0.51 |
| Cul4b (GeneID 72584) | no change with or without drug | 0.45 | 0.17 |
| Gpr19 (GeneID 14760) | no change with or without drug | -0.79 | -0.84 |

Entries above whose gene name starts with T or t (2):
| target | combined z-score class | viability z-score with doxorubicin | viability z-score without drug |
| --- | --- | --- | --- |
| Trappc9 (GeneID 76510) | low cell count with doxorubicin only (active) | -2.14 | 1.52 |
| Traip (GeneID 22036) | no change with or without drug | -0.9 | -1.52 |
